No constants are given. Whether binding was seen depends on the method and setting. In cells and extracts the contact can be indirect. Some entries that bind do so weakly or less than the wild type.
Legend:
[1] = biological target: T1, nuclear factor erythroid 2-related factor 2 (Nrf2) (human (endogenous in HT-29 and SNU-407 colon cancer cells)) (UniProt Q16236); assay: co-IP; nuclear fraction lysates of colon cancer cells, untreated or treated with 30 uM luteolin, incubated overnight at 4 °C with Nrf2, p53 or IgG antibody; protein A/G PLUS-beads; Western blot for Nrf2 and p53
T1 sequence: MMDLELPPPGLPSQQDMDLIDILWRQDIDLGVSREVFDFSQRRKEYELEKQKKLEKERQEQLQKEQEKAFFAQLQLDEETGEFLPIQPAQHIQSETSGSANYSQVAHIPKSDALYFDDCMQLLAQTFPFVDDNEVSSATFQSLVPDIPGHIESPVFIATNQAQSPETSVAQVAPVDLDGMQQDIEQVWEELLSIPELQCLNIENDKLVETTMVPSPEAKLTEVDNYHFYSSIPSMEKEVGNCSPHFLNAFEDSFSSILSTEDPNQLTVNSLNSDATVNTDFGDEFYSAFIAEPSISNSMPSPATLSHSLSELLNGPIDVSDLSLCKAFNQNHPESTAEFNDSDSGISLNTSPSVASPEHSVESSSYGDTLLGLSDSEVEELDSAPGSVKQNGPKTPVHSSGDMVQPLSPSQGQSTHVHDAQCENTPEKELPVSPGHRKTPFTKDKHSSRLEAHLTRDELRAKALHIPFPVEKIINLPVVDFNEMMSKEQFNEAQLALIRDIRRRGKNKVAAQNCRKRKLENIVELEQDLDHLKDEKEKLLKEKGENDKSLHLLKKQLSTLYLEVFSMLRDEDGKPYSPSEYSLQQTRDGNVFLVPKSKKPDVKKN

[2] = biological target: T1, nuclear factor erythroid 2-related factor 2 (Nrf2) (human (endogenous in HT-29 and SNU-407 colon cancer cells)); assay: proximity ligation; Duolink kit on fixed, permeabilised colon cancer cells, untreated or treated with 30 uM luteolin; rabbit anti-Nrf2 and mouse anti-p53 primary antibodies

p53, a tumor suppressor (from UniProt P04637 1-393)
binding [1]: binds
binding [2]: binds
